{"sequences": {"note": "Protein sequences, listed by entry. Tags and fused reporters are not part of them. Lines headed by an entry give the natural chain unless they say otherwise; changes in a name come on top. Residues count along the entry.", "UniProt P36941": "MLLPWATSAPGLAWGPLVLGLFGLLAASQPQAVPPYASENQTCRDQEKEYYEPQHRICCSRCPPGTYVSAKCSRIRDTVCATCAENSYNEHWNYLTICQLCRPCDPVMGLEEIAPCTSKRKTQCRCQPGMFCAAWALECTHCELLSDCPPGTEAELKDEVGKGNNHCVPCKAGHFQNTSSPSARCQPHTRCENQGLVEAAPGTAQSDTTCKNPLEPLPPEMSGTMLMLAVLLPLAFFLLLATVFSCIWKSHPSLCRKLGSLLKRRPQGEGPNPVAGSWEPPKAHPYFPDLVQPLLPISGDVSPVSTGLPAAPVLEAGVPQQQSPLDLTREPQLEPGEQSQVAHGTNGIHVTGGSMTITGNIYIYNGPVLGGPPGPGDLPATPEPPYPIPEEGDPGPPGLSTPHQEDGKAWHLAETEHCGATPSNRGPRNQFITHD", "LTβR on the surface of human tumor cells (MDA-MB-231, HT-29)": "residues 31-435 of P36941", "UniProt O43557": "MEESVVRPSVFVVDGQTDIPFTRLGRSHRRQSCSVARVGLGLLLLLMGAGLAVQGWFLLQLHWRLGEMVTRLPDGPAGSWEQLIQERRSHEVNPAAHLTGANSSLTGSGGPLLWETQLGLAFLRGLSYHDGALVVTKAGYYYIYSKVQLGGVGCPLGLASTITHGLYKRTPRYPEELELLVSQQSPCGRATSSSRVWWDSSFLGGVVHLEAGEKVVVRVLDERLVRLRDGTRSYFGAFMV"}, "source": "patent US20040009147A1", "key": {"[1]": {"target": "LTβR on the surface of human tumor cells (MDA-MB-231, HT-29) (human) (UniProt P36941)", "test": "flow cytometry (discussion of Example 5)"}, "[2]": {"target": "LTβR on the surface of human tumor cells (MDA-MB-231, HT-29) (human) (UniProt P36941)", "test": "flow cytometry, Flag-tagged sAIM II (10 µg/ml) on MDA-MB-231 cells, anti-Flag mAb; the cells carry both LTβR and TR2 (FIGS. 8A, 8E), the panel does not separate the two receptors"}, "[3]": {"target": "LTβR-Fc fusion protein (extracellular domain of human lymphotoxin beta receptor fused to IgG1 Fc) (human) (UniProt P36941)", "test": "competition in flow cytometry, Fc fusion at 10 µg/ml preincubated with AIM II"}, "[4]": {"target": "LTβR-Fc fusion protein (extracellular domain of human lymphotoxin beta receptor fused to IgG1 Fc) (human) (UniProt P36941)", "test": "BIAcore, LTβR-Fc on the chip"}, "[5]": {"target": "LTβR-Fc fusion protein (extracellular domain of human lymphotoxin beta receptor fused to IgG1 Fc) (human) (UniProt P36941)", "test": "BIAcore, LTβR-Fc immobilized by amine coupling, dilutions of CHO conditioned medium as analyte"}, "[6]": {"target": "Flag-tagged soluble AIM II protein (sAIM II), amino acids 74-240 of AIM II (human) (UniProt O43557)", "test": "flow cytometry blocking: LTβR-Fc (10 µg/ml) preincubated 30 min with Flag-tagged sAIM II before addition to MDA-MB-231 cells; blocked: binding of sAIM II to the cells"}, "[7]": {"target": "LTβR-Fc fusion protein (extracellular domain of human lymphotoxin beta receptor fused to IgG1 Fc) (human) (UniProt P36941)", "test": "LTβR-Fc affinity column, SDS-PAGE with silver stain; eluted fractions retained binding to the LTβR BIAcore chip"}, "[8]": {"target": "LTβR-Fc fusion protein (extracellular domain of human lymphotoxin beta receptor fused to IgG1 Fc) (human) (UniProt P36941)", "test": "BIAcore, LTβR-Fc on the chip, conditioned medium of CHO clones"}}, "note": "These are yes or no findings as the source states them, for the method shown. Some results given as binding are weak or reduced against the parent protein; the word gives no strength."}
{"substance": "Flag-tagged soluble AIM II protein (sAIM II), amino acids 74-240 of AIM II (from UniProt O43557 74-240) (ligand)", "values": [{"measurement": "binding", "setting": "[1]", "result": "binds"}, {"measurement": "binding", "setting": "[2]", "result": "binds"}, {"measurement": "binding", "setting": "[3]", "result": "binds"}, {"measurement": "binding", "setting": "[4]", "result": "binds"}, {"measurement": "binding", "setting": "[5]", "result": "binds"}]}
{"substance": "LTβR-Fc fusion protein (extracellular domain of human lymphotoxin beta receptor fused to IgG1 Fc) (from UniProt P36941 31-227)", "values": [{"measurement": "binding", "setting": "[6]", "result": "binds"}]}
{"substance": "ck-beta 8/AIM II fusion protein from CHO-11 conditioned media (extracellular region of AIM II, amino acids 60-240) (from UniProt O43557 60-240) (ligand)", "values": [{"measurement": "binding", "setting": "[7]", "result": "binds"}, {"measurement": "binding", "setting": "[8]", "result": "binds"}]}
